Experimental data reported in patent US20220289816A1, “IMMUNOTHERAPY WITH B*07 RESTRICTED PEPTIDES AND COMBINATION OF PEPTIDES AGAINST CANCERS AND RELATED METHODS” (Immatics Biotechnologies GmbH, priority 2018, published 2022).

Columns and labels:
[1] = system: source genes of the peptides (mRNA); experiment: Expression profiling of genes encoding the peptides (RNAseq of tumor and normal tissue RNA); parameters: species or system human
[2] = system: tumor tissue samples and normal tissue samples (HLA-B*07 positive); experiment: Identification and quantitation of tumor associated peptides presented on the cell surface (HLA immunoprecipitation, label-free LC-MS); parameters: species or system human; settings: cancer entities on which the peptide was found presented (abbreviations in table head)
[3] = tumor entities in which the source gene of the peptide is highly over-expressed compared to a panel of normal tissues (RNAseq)
[4] = tumor entities in which the source gene of the peptide is over-expressed compared to a panel of normal tissues (RNAseq)
[5] = tumor types in which the peptide's source gene is highly over-expressed compared to a panel of normal tissues, RNAseq
[6] = tumor types in which the peptide's source gene is over-expressed compared to a panel of normal tissues, RNAseq

Row | Substance | Gene Expression in tumor samples: Highly over-expressed (++) [1, 3] | Gene Expression in tumor samples: over-expressed (+) [1, 4] | Peptide Presentation on cancer entities ([2]; Table 8a) | further results
1 | 192: peptide found in ROS1 (gene looked up) (IPFADVKSF; listed as Homo sapiens) [compound 192] | NSCLCadeno, NSCLCother | NSCLCsquam | NSCLCadeno, NSCLCsquam, SCLC | 
2 | 196: peptide found in EGFR (gene looked up) (RPSGTAGAAL; listed as Homo sapiens) [compound 196] | GBM |  | HNSCC, NSCLCsquam, RCC | 
3 | 197: peptide found in EGFR (gene looked up) (RPSGTAGAALLA; listed as Homo sapiens) [compound 197] | GBM |  | HCC | 
4 | 199: peptide found in MPL (gene looked up) (SPFWIHQA; listed as Homo sapiens) [compound 199] | AML |  | AML | 
5 | 202: peptide found in MPL (gene looked up) (SPSREASAL; listed as Homo sapiens) [compound 202] | AML |  | CLL, GBM, UBC | 
6 | 208: peptide found in SUCNR1 (gene looked up) (RNRQVATAL; listed as Homo sapiens) [compound 208] | CCC | AML | CCC, CRC, GBC, HNSCC | 
7 | 215: peptide found in EGFR (gene looked up) (IPVAIKEL; listed as Homo sapiens) [compound 215] | GBM |  | NSCLCother | 
8 | 216: peptide found in APOB (gene looked up) (LPWEQNEQV; listed as Homo sapiens) [compound 216] | HCC |  | HCC | 
9 | 217: peptide found in APOB (gene looked up) (SPGDKRLAAYL; listed as Homo sapiens) [compound 217] | HCC |  | CCC, HCC | 
10 | 220: peptide found in GRIN2D (gene looked up) (RPAPGPAPFV; listed as Homo sapiens) [compound 220] | CRC, GC | GBC, HNSCC, MEL, NSCLCadeno, OSCAR, PACA, UBC, UEC | BRCA | 
11 | 222: peptide found in APOB (gene looked up) (MLKTTLTAF; listed as Homo sapiens) [compound 222] | HCC |  | HCC | 
12 | 230: peptide found in MITF (gene looked up) (DVIDDIISL; listed as Homo sapiens) [compound 230] | MEL |  | GBM, HCC, HNSCC, NHL, NSCLCsquam | 
13 | 231: peptide found in APOB (gene looked up) (SPITLQAL; listed as Homo sapiens) [compound 231] | HCC |  | HCC | 
14 | 236: peptide found in APOB (gene looked up) (TPELKSSIL; listed as Homo sapiens) [compound 236] | HCC |  | HCC | 
15 | 249: peptide found in LGR5 (gene looked up) (SPRSGVLL; listed as Homo sapiens) [compound 249] | UEC |  | OSCAR, UEC | 
16 | 254: peptide found in PHEX (gene looked up) (RVIQGTTTL; listed as Homo sapiens) [compound 254] | CLL | NHL | HCC | 
17 | 258: peptide found in BTLA (gene looked up) (SVIGPNSRL; listed as Homo sapiens) [compound 258] | CLL | NHL | SCLC | 
18 | 261: peptide found in EGFR (gene looked up) (SPSTSRTPL; listed as Homo sapiens) [compound 261] | GBM |  | GBC, GBM, HCC, HNSCC, NSCLCadeno | 
19 | 262: peptide found in EGFR (gene looked up) (SPSTSRTPLLSSL; listed as Homo sapiens) [compound 262] | GBM |  | BRCA, CCC, GBC, GBM, HCC, HNSCC, NHL, OSCAR, RCC, UEC | 

Row | Substance | Gene Expression in tumor samples: Highly over-expressed (++) [1, 3] | Gene Expression in tumor samples: over-expressed (+) [1, 4] | Peptide Presentation on cancer entities ([2]; Table 8a) | further results
20 | 266: peptide found in LOXL3 (gene looked up) (KPYEGRVEI; listed as Homo sapiens) [compound 266] | MEL |  | CLL, GBM | 
21 | 274: peptide found in APOB (gene looked up) (KPIRTGISPLAL; listed as Homo sapiens) [compound 274] | HCC |  | CCC, HCC | 
22 | 281: peptide found in SIGLEC15 (gene looked up) (NPRSPPATM; listed as Homo sapiens) [compound 281] | UBC | HCC, UEC | AML, OC | 
23 | 282: peptide found in MPL (gene looked up) (AVRLPTPNL; listed as Homo sapiens) [compound 282] |  | AML | AML | 
24 | 297: peptide found in MET (gene looked up) (FPIKYVNDF; listed as Homo sapiens) [compound 297] |  | CCC, GBC, NSCLCadeno | RCC | 
25 | 306: peptide found in CYP2W1 (gene looked up) (RPFPLALL; listed as Homo sapiens) [compound 306] |  | CRC | CRC | 
26 | 318: peptide found in SIGLEC6 (gene looked up) (TPISNTGVL; listed as Homo sapiens) [compound 318] |  | CLL, NHL | AML, GBC, NHL, NSCLCadeno, NSCLCother, RCC | 
27 | 327: peptide found in SIGLEC6 (gene looked up) (GPRTTQSSVL; listed as Homo sapiens) [compound 327] |  | CLL, NHL | NSCLCadeno | 
28 | 330: peptide found in MORC4 (gene looked up) (RPFSAIAEL; listed as Homo sapiens) [compound 330] |  | CCC | GBC | 
29 | 336: peptide found in NUP155 (gene looked up) (YPLQGPGLLSV; listed as Homo sapiens) [compound 336] |  | NSCLCother, SCLC | NHL | 
30 | 344: peptide found in AR (gene looked up) (VPYPSPTCV; listed as Homo sapiens) [compound 344] |  | HCC, PRCA | BRCA, HCC, UEC | 
31 | 345: peptide found in AR (gene looked up) (SAAPPGASL; listed as Homo sapiens) [compound 345] |  | HCC, PRCA | HCC | 
32 | 347: peptide found in BRIP1 (gene looked up) (SPLEKINSF; listed as Homo sapiens) [compound 347] |  | MEL, SCLC | GBC | 
33 | 354: peptide found in TRIO (gene looked up) (APAKDARASL; listed as Homo sapiens) [compound 354] |  | GBM | CRC, GBC, HNSCC, NSCLCadeno, NSCLCsquam, OC, OSCAR, UBC | 
34 | 367: peptide found in OXTR (gene looked up) (APQVHIFSL; listed as Homo sapiens) [compound 367] | CCC | GBM, OC | BRCA, CRC, GBM, RCC, UEC | 
35 | 376: peptide found in CXCR3 (gene looked up) (FPQVGRTAL; listed as Homo sapiens) [compound 376] |  | CLL | AML, BRCA, CCC, CLL, CRC, GBC, GC, HCC, HNSCC, MEL, NHL, NSCLCadeno, NSCLCother, NSCLCsquam, OC, OSCAR, PACA, PRCA, RCC, SCLC, UBC, UEC | 
36 | 449: peptide found in MMP12 (gene looked up) (RPKTSVNLISSL; listed as Homo sapiens) [compound 449] |  |  |  | Gene Expression in tumor samples: Highly over-expressed (++) [1, 5]: CCC, GBC, GC, MEL, NSCLCadeno, OC, OSCAR, PACA, UBC.; UEC; Gene Expression in tumor samples: over-expressed (+) [1, 6]: HCC, NHL, RCC; Gene Expression in tumor samples: very highly over-expressed (+++) ([1]; tumor types in which the peptide's source gene is very highly over-expressed compared to a panel of normal tissues, RNAseq): CRC, HNSCC, NSCLCother, NSCLCsqua; m, SCLC; Peptide Presentation on cancer entities ([2]; Table 8b): SCLC
37 | 451: peptide found in PGR (gene looked up) (VPILPLNHAL; listed as Homo sapiens) [compound 451] |  |  |  | Gene Expression in tumor samples: Highly over-expressed (++) [1, 5]: UEC; Gene Expression in tumor samples: over-expressed (+) [1, 6]: BRCA; Peptide Presentation on cancer entities ([2]; Table 8b): UEC

For part of these data: For expression read-outs the peptide stands for its source gene, whose mRNA was measured; the gene is not named for every peptide.
